Data from PMC10080078, “Use of phage display biopanning as a tool to design CAR-T cells against glioma stem cells” (Frontiers in Oncology, 2023).

Protein sequences, listed by entry. Tags and fused reporters are not part of them. Lines headed by an entry give the natural chain unless they say otherwise; changes in a name come on top.
UniProt P19022: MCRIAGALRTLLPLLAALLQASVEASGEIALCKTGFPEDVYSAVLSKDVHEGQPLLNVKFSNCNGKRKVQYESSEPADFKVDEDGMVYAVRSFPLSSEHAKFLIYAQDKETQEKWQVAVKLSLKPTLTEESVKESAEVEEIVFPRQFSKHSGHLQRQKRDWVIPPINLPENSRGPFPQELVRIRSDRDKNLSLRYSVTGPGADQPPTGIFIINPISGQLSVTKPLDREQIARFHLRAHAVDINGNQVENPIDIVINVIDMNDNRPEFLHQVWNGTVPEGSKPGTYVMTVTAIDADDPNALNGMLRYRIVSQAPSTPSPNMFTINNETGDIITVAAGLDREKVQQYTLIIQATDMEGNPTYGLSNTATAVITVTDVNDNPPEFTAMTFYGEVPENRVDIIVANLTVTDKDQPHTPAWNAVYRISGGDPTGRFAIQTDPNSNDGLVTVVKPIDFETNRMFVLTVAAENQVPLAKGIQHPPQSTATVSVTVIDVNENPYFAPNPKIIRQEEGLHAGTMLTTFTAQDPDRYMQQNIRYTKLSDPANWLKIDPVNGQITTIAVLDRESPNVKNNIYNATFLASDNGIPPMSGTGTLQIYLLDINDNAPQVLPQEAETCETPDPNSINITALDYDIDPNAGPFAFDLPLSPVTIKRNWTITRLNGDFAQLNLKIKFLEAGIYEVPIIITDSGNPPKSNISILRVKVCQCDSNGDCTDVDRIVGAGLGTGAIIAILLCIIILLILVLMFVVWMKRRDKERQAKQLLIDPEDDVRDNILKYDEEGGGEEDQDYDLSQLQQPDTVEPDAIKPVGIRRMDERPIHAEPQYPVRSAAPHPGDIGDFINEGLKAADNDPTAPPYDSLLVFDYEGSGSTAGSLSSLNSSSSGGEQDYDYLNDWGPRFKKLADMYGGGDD

Molecular target: N-cadherin on the HuProt human proteome array (human) (UniProt P19022)
Test: peptide or protein array; EV-Cy3 and NT-Cy3 profiled on HuProt human proteome arrays (CDI Laboratories); both purified

binding: binds
Binder: AWEFYFPGGGGSGGGGSGGGGSSSQPFWS (conjugated with cyanine 3 (position not given)) [cyanine 3-conjugated dual peptide EV (EV-Cy3)]

Results are given in words; binding and its absence hold for the method and conditions named. Binding can be weak; no strength is given.
